Assay results reported in PubChem BioAssay AID652054 (National Center for Advancing Translational Sciences (NCATS), 2013).
Screen size: about 360,000 compounds; about 9,100 (2.5%) were called active. The shares of active, inactive and inconclusive entries below differ from those in the screen. No stated cut-off is given here; in the data, active means max response below about -50%; inconclusive means no clear call, values can overlap the other calls; inactive means above that.

The chains behind the UniProt entries cited, without tags or fusion partners.
UniProt P35462, whole entry, looked up: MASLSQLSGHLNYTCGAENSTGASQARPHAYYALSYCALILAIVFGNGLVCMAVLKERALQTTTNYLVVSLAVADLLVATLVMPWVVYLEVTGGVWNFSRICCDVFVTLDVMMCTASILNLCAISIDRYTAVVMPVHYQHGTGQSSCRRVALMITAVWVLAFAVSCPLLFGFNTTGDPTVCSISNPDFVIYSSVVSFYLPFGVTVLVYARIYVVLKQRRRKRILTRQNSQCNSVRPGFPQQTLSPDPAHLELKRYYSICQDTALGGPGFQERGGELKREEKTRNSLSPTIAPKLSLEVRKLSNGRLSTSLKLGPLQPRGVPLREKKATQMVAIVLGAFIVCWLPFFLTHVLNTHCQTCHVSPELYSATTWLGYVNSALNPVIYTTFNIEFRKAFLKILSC

Target: D(3) dopamine receptor (Homo sapiens) (UniProt P35462)
Assay: qHTS of D3 Dopamine Receptor Antagonist: qHTS
Conditions: D3R cells, DiscoveRx beta-arrestin luminescence, antagonist mode; active compounds read low
Outline: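 Cells plated overnight at 1500 cells/well, then exposed to library compounds with dopamine controls for 90 minutes at 37 degrees C. DiscoveRx reagent added for 30–60 minutes at room temperature; luminescence read, quantitative HTS format.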
On the % scale 0 is the no-effect control and ±100 the full control effect.

Max response, negative = inhibition, inconclusive:
Cc1cc(C)n(-c2ccc(C(=O)NC(C)C)cc2)n1 -45.1%
Cn1c(SCC(=O)c2ccccc2)nnc1C1CC1 -38%
Cc1occc1C(=O)N(C)CC1CCCN(CCc2ccc(Cl)cc2)C1 (stereo not drawn) -34.1%
COc1ccc(CN2CCN(Cc3ccco3)CC2)c(OC)c1 -48.2%
CN(Cc1ccco1)S(=O)(=O)c1nnc(NC(=O)c2ccc(F)cc2)s1 -34.3%
NNC(=O)CN1C(c2cccc(Cl)c2)=Nc2ccc(Br)cc2C1c1ccccc1 (stereo not drawn) -43%
COC(=O)CC1=C(C(=O)OC)C(c2cccc(OCC(N)=O)c2)C(C#N)=C(N)O1 (stereo not drawn) -31.9%
COc1cc(-c2ccc(NC(=O)c3ccc(C)cc3)c(OC)c2)ccc1NC(=O)c1ccc(C)cc1 -37.1%
CCCCSC(=S)N(C)C1CCS(=O)(=O)C1 (stereo not drawn) -30.3%
Cc1cnn(-c2cc(N/N=C/c3ccc(F)cc3)ncn2)c1 -31.6%
CC[C@]12c3[nH]c4cc(-c5ccco5)ccc4c3CCN1C(=O)[C@@H](CC(=O)NCCC1=CCCCC1)C[C@@H]2C(=O)N1CCN(C(=O)C2CC2)CC1 -41.3%
CCCN1C(=O)c2ccccc2NC1c1ccc(Br)cc1 (stereo not drawn) -39.2%
Cc1nn(CC(=O)N2CCN(C)CC2)c(=O)c2ccccc12 -34.8%
O=C(c1ccc(=O)oc1)N1CCN(C(c2ccccc2)c2ccccc2)CC1 -36%
CCN1C(=O)c2cccc3c(N)ccc1c23 -41%
C[C@H](N=C1NS(=O)(=O)c2ccccc21)C(=O)OCc1cc([N+](=O)[O-])cc2c1OCOC2 -46.1%
CCCc1cc(C(=O)Nc2cccc(Cl)c2)no1 -44.2%
COc1ccc(S(=O)(=O)NCC2CCCN(C(=O)c3ccco3)C2)cc1 (stereo not drawn) -43.9%
O=C1CCCN1Cc1ncnn1-c1ccccc1 -42.2%
Cc1ccc(C(=O)CCC(=O)Nc2ccc(Cl)c(S(=O)(=O)Nc3cccc(Cl)c3)c2)cc1 -33.7%
CCc1ccc(Nc2ccc(S(=O)(=O)N3CCOCC3)cc2[N+](=O)[O-])cc1 -34.5%
CC1CCN(C(=O)c2ccc(S(=O)(=O)N3CCCCCC3)cc2)CC1 -31.4%
CC(=O)C(=Cc1ccc(Cl)cc1)C(=O)c1ccccc1 -35.6%
Cc1csc(SCC(=O)Nc2nc(-c3ccccc3)cs2)n1 -37.2%
COc1ccccc1N1CCN(C(CNS(=O)(=O)c2ccccc2)c2ccccc2)CC1 (stereo not drawn) -31.5%
CCOc1ccc(/C=N/NC(=O)Cc2csc(Nc3cccc(C(F)(F)F)c3)n2)cc1 -36.5%
CC1CC2(C)Oc3ccccc3CC2C(C)C1CNCCCN(C)C (stereo not drawn) -40.7%
O=C1c2cccc3cccc(c23)C(=O)N1CCCN1CCN(c2ccc(F)cc2)CC1 -42.5%
CCN(CC)S(=O)(=O)c1ccc(NC(=O)c2cc(=O)[nH]c3ccccc23)cc1 -31.4%
O=C(Cn1c(=O)oc2cc(S(=O)(=O)N3CCCC3)ccc21)N1CCN(c2ccccc2F)CC1 -33.3%
O=S(=O)(Cc1ccccc1)N1CCN(C/C=C/c2ccccc2)CC1 -33%
Cc1nn(CC(=O)Nc2ccc(N3CCOCC3)cc2)c(C)c1Br -39%
COc1ccc(/C=C2\C(=O)NCC(=O)N2Cc2ccccc2)cc1 -46.4%
O=C(NCCCN1CCCC1=O)c1cncc(Br)c1 -33%
CCc1ccc(C(=O)CN2C(=O)NC3(CCc4ccccc43)C2=O)cc1 (stereo not drawn) -37.8%
Cc1ccc2c(c1)NC(=O)C(CC(=O)NCCCN1CCN(c3cc(C)ccc3C)CC1)O2 (stereo not drawn) -36.3%
COc1cc(CN2CCC(C(=O)N3CCC(C)CC3)CC2)cc(Br)c1O -48.3%
COc1cc(NC(=O)c2cncc(-c3ccc(C#N)cc3)c2)cc(C(=O)Nc2cccc(C(F)(F)F)c2)c1 -30.6%
O=C(CCCCCn1c(=O)[nH]c2ccccc2c1=O)NCCCN1CCN(c2ccccc2F)CC1 -43.4%
O=C(CN1CCN(CCN2C(=O)c3cccc4cccc(c34)C2=O)CC1)c1ccc(F)cc1 -35.7%
COc1ccc(-n2cc(CN3CCCC3)c(-c3cccc(F)c3)n2)cc1 -42.2%
O=C1C(c2ccncc2)=C(O)c2ccccc21 -31.4%
O=C(c1cc(C2CC2)on1)N1CCN(c2ccc(F)cc2)CC1 -49.6%
COc1ccc(NS(=O)(=O)c2cc([N+](=O)[O-])ccc2NN=Cc2ccccc2OCC(=O)O)cc1 -41.5%
O=C(CN1CCN(c2ccccn2)CC1)Nc1ccc(F)cc1 -36.1%
O=C(c1ccccc1F)N1CCc2ccccc21 -33.3%
CCCCN(CC)c1nc(-c2ccncc2)nc2ccccc12 -48.3%

Structures above that have bromine (5):
Max response, negative = inhibition, inconclusive:
NNC(=O)CN1C(c2cccc(Cl)c2)=Nc2ccc(Br)cc2C1c1ccccc1 (stereo not drawn) -43%
CCCN1C(=O)c2ccccc2NC1c1ccc(Br)cc1 (stereo not drawn) -39.2%
Cc1nn(CC(=O)Nc2ccc(N3CCOCC3)cc2)c(C)c1Br -39%
O=C(NCCCN1CCCC1=O)c1cncc(Br)c1 -33%
COc1cc(CN2CCC(C(=O)N3CCC(C)CC3)CC2)cc(Br)c1O -48.3%

Next part:

Max response, negative = inhibition, active:
CN1CCN(/C(=N\O)c2nonc2N)CC1 -68%
CC(c1nc2ccccc2o1)N1C(=O)c2ccccc2C1=O (stereo not drawn) -53.2%
CN(C(=O)CSc1nncn1-c1ccccc1)C1CCS(=O)(=O)C1 (stereo not drawn) -54.3%
NC(=O)C1(N2CCCCC2)CCN(Cc2ccc(Br)cc2)CC1 -115%
O=S(=O)(Nc1ccc(N=Nc2ccccc2)cc1)c1ccccc1 -52.2%
Cc1nc(C(F)(F)F)ccc1C(=O)N1CCC1(C)C(=O)NCc1cccs1 (stereo not drawn) -90.7%
N#Cc1c(-c2ccccc2)nc(-c2ccccc2)[nH]c1=O -58%
O=C(NNc1ccc(C(F)(F)F)cc1[N+](=O)[O-])c1ccc(NS(=O)(=O)c2ccc(F)cc2)cc1 -73%
Cc1ccc(N=C2c3ccccc3C(=O)C2[N+](=O)[O-])cc1C (stereo not drawn) -57.5%
CCN(CC)CCN(C(=O)c1ccc2c(c1)OCCO2)c1nc2c(Cl)cccc2s1 -62.7%
Cc1cccc2sc(NS(=O)(=O)c3ccccc3)nc12 -64.5%
COc1ccc([N+](=O)[O-])c(S(=O)(=O)c2ccc(Cl)cc2)n1 -95.1%
CN1CC[C@]2(CCN3CCc4c(oc5ccccc45)[C@@H]3C2)N(C)C1=O -57.9%
CCCOc1ccc(-c2nc(N3CCN(C)CC3)c3ccccc3n2)cc1 -58.8%
O=[N+]([O-])c1ccc(O)c(NC(=S)Nc2ccccc2)c1 -77.7%
COC1=C(Br)C(=O)c2nc(C)ccc2C1=O -119%

Max response, negative = inhibition, inactive:
COCCCNC(=O)CCc1nc(-c2ccccc2)no1 8.95%
CCOC(=O)N1CCN(C(=O)C[C@@H]2C[C@@]3(C(=O)OCC)CCC=C3N(CCC3=CCCCC3)C2=O)CC1 -2.75%
Cc1ccc(C(=O)NNC(=O)C2CCN(Cc3ccccc3)CC2)cc1 35.6%
COc1ccccc1COC(=O)C(NC(=O)c1ccc(C)cc1)C(C)C (stereo not drawn) 16.8%
COc1ccc(/C(N)=N/OC(=O)c2ccco2)cc1OC 6.59%
Cc1cc(C(F)(F)F)c2c(C)nn(-c3ccccc3)c2n1 0.509%
NS(=O)(=O)c1ccc(NC(=O)C(=O)NCCC(=O)O)cc1 -23.9%
CCc1noc(C)c1C(=O)N1CCN(S(=O)(=O)c2cccs2)CC1 12.1%
CC1Cc2ccccc2N1C(=O)CSc1ncccn1 (stereo not drawn) -23.6%
Cn1c(=O)[nH]c(=O)c2c1nc(Br)n2Cc1ccccc1Cl -28.1%
CCO/N=C1\C(=O)N(c2ccccc2)c2ccccc21 -0.406%
CCOC(=O)c1c(/N=C/N(C)C)sc(C=O)c1-c1ccccc1 -0.0995%
CC(C)c1ccc(N(C(=O)c2snc(C(N)=O)c2N)C(C(=O)NCC2CCCO2)c2ccc(N(C)C)cc2)cc1 (stereo not drawn) 20.8%
Cc1nn(Cc2c(F)c(F)c(F)c(F)c2F)c(C)c1NC(=O)c1ccc(COc2ccc(F)cc2)o1 14.8%
COC(=O)C1CCN(C2CN(Cc3ccc(C)cc3)S(=O)(=O)C2)CC1 (stereo not drawn) 1.54%
c1ccc(Cc2nnc(N3CCCCC3)c3ccccc23)cc1 2.07%
Cc1ccc(NC(=O)Cn2nnc(-c3ccccc3NC(=O)c3cccs3)n2)cc1 -1.54%
CCOc1ccc(NC(=O)COC(=O)CC2CC3CCC2C3)cc1 (stereo not drawn) 11.8%
O=C(CCCOc1ccc(Cl)cc1Cl)Nc1cc(S(=O)(=O)N2CCOCC2)ccc1N1CCOCC1 6.4%
CCCSC1=N/C(=C/c2ccsc2)C(=O)N1c1ccccc1 -0.78%
COC(=O)C1=CN(c2ccc(OC)cc2)C(N)=C(C#N)C1c1cccc2ccccc12 (stereo not drawn) -3.6%
COC(=O)CCCC1=CC2=C(c3ccccc3)C(=O)C(C)(OC(=O)C3CCCC3)C(=O)C2=CN1CC1CC1 (stereo not drawn) -0.338%
COc1cccc(NC(=S)N2CCC(Cc3ccccc3)CC2)c1 -12.9%
O=C(COc1cccc2cccnc12)N/N=C/c1cccn1-c1ccc(F)cc1 23.9%
Clc1ccc(SCc2csc(N3CCOCC3)n2)cc1 -18.4%
